Source: publication PMC8285421
These are yes or no findings as the source states them, for the method shown. In cells and extracts the contact can be indirect. Some results given as binding are weak or reduced against the parent protein; the word gives no strength. Blank lines part the entries; values can stand above or below the molecule they belong to.

Sequences of proteins named here, by UniProt entry; tags and fusion partners are left off.
UniProt P16390: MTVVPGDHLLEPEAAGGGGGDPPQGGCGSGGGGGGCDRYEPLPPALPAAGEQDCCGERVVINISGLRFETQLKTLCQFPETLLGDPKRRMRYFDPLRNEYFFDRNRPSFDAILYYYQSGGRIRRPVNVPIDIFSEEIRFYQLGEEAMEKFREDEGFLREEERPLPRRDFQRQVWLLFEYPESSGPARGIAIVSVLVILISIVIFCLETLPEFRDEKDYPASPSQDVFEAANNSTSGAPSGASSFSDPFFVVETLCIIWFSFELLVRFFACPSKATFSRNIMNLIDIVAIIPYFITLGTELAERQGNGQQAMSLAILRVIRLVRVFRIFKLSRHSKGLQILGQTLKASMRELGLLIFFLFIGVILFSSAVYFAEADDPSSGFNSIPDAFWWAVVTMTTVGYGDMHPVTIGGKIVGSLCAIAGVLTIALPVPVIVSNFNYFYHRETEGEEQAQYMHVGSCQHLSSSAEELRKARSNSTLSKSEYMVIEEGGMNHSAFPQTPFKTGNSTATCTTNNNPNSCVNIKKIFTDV
UniProt P15384: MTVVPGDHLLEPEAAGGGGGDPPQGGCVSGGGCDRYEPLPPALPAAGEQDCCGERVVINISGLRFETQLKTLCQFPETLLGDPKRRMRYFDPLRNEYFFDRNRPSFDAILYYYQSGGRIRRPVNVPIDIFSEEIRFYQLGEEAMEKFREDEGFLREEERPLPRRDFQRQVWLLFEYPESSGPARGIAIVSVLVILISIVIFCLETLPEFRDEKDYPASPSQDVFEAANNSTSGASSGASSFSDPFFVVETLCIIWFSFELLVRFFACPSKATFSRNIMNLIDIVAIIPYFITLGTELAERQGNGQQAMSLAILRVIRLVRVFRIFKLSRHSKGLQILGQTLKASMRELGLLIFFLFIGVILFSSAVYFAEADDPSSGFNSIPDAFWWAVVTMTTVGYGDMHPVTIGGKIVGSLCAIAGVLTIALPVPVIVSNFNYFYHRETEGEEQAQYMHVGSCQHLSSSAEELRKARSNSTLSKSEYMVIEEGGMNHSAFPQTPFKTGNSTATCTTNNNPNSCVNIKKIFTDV

Tests used:
[1] = molecular target: T1, KCNE4 (regulatory subunit), endogenous in CY15 dendritic cells (mouse (endogenous in CY15)) (UniProt Q9WTW3); assay: co-IP; CY15 dendritic cell lysate (1% Triton X-100, 150 mM NaCl, 50 mM HEPES pH 7.4), 2 mg protein; immunoprecipitated with anti-Kv1.3 or anti-KCNE4 and protein G-Sepharose, immunoblotted for Kv1.3 and KCNE4; cells untreated or treated with LPS (100 ng/ml) for 24 h
T1 sequence: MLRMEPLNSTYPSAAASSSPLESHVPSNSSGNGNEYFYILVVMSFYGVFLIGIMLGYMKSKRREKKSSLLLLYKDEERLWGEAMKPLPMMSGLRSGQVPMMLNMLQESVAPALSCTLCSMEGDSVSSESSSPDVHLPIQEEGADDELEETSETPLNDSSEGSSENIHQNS

[2] = molecular target: Kv1.3 (voltage-dependent potassium channel), endogenous in CY15 dendritic cells (mouse (endogenous in CY15)) (UniProt P16390); assay: as above
[3] = molecular target: Kv1.3YFP (rat (printed as rKv1.3)) (UniProt P15384); assay: FRET or BRET; FACS-based FRET in living Jurkat T cells cotransfected with CFP and YFP fusions; CFP donor excited at 405 nm, FRET signal with a 525/50 filter; FRET-positive cells gated against cells cotransfected with CFP and YFP

binding [1]: binds
Molecule: Kv1.3 (voltage-dependent potassium channel), endogenous in CY15 dendritic cells (from UniProt P16390 1-528)

binding [2]: binds
B1: KCNE4 (regulatory subunit), endogenous in CY15 dendritic cells (protein, UniProt Q9WTW3 1-170)
chain: MLRMEPLNSTYPSAAASSSPLESHVPSNSSGNGNEYFYILVVMSFYGVFLIGIMLGYMKSKRREKKSSLLLLYKDEERLWGEAMKPLPMMSGLRSGQVPMMLNMLQESVAPALSCTLCSMEGDSVSSESSSPDVHLPIQEEGADDELEETSETPLNDSSEGSSENIHQNS

binding [3]: binds
B2: KCNE4CFP (protein, UniProt Q9WTW3 1-170)
chain: MLRMEPLNSTYPSAAASSSPLESHVPSNSSGNGNEYFYILVVMSFYGVFLIGIMLGYMKSKRREKKSSLLLLYKDEERLWGEAMKPLPMMSGLRSGQVPMMLNMLQESVAPALSCTLCSMEGDSVSSESSSPDVHLPIQEEGADDELEETSETPLNDSSEGSSENIHQNS
